Some of the results follow. Repeats are few or missing, and single values can be far off.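 Cells were imaged in 1,536-well plates, and nuclei stained with an antibody against cleaved PARP were counted against all DNA-stained nuclei to give the apoptosis fraction. Screening doses were chosen to leave most cells alive, and resting and induced cleaved-PARP levels differ strongly between cell lines.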

The test system of the experiment is SkMel30. As to the kind of experiment: cleaved PARP positive nuclei fraction relative to DMSO control; melanoma cells; higher = more apoptosis. As to conditions: library dose: low library concentration; 72 h.
Turning to `Nc1ncn([C@H]2C[C@H](O)[C@@H](CO)O2)c(=O)n1` [decitabine] + COc1ccc(-c2ccc3c(N4CCOCC4)nc(N4C[C@@H](C)O[C@@H](C)C4)nc3n2)cc1CO [KU0063794] (first compound 0.1 µM, partner dose 0.02 µM), the “cleaved PARP positive nuclei fraction” value is 40.9%.
With `CS(=O)(=O)CCNCc1ccc(-c2ccc3ncnc(Nc4ccc(OCc5cccc(F)c5)c(Cl)c4)c3c2)o1` [lapatinib] + O=S(=O)(c1ccccc1)N(CC(F)(F)F)c1ccc(C(O)(C(F)(F)F)C(F)(F)F)cc1 [T0901317] (first compound 0.8 µM, partner dose 1.4 µM), the “cleaved PARP positive nuclei fraction” value was 195%.
Under `Nc1ccn([C@@H]2O[C@H](CO)[C@@H](O)C2(F)F)c(=O)n1` [gemcitabine] + CC1(C)NC(=O)N(c2ccc([N+](=O)[O-])c(C(F)(F)F)c2)C1=O [nilutamide] (first compound 0.0004 µM, partner dose 1 µM) stands 54.7%; under `CCCS(=O)(=O)Nc1ccc(F)c(C(=O)c2c[nH]c3ncc(Cl)cc23)c1F` + O=C1NC(=O)/C(=C/c2ccc(-c3ccc(F)cc3O)o2)S1 [AS252424] (first compound 0.08 µM, partner dose 1 µM), 68.4%; under `CNC(=O)c1cc(Oc2ccc(NC(=O)Nc3ccc(Cl)c(C(F)(F)F)c3)cc2)ccn1` [sorafenib] + C[C@@H]1CCN(C(=O)CC#N)C[C@@H]1N(C)c1ncnc2[nH]ccc12 [CP690550] (first compound 0.4 µM, partner dose 1 µM), 29.6%.
Regarding `Cc1cc(Nc2cc(N3CCN(C)CC3)nc(/C=C/c3ccccc3)n2)n[nH]1` + CN(C)S(=O)(=O)c1ccc2c(c1)/C(=C/c1cc3c([nH]1)CCCC3)C(=O)N2 [SU6656] (first compound 0.04 µM, partner dose 0.4 µM), the “cleaved PARP positive nuclei fraction” value amounted to 71.1%.
The same measure for `Nc1ncn([C@H]2C[C@H](O)[C@@H](CO)O2)c(=O)n1` [decitabine] + CCCCCCCCCCCC1=C(O)C(=O)C=C(O)C1=O [Embelin] (first compound 0.1 µM, partner dose 1.2 µM): 41.1%; for `Nc1nc(F)nc2c1ncn2[C@@H]1O[C@H](CO)[C@@H](O)[C@@H]1O` [fludarabine] + CCCCCCCCCCCC1=C(O)C(=O)C=C(O)C1=O [Embelin] (first compound 0.2 µM, partner dose 1.2 µM): 2620%; for `O=C(O)c1ccc2c(c1)nc(Nc1cccc(Cl)c1)c1ccncc12` + COc1ccc2c(c1)CCC1C2CCC2(C)C(NCCCCCCN3C(=O)C=CC3=O)CCC12 [U73122] (first compound 0.4 µM, partner dose 0.4 µM): 71%.
Regarding `Nc1ccn([C@@H]2O[C@H](CO)[C@@H](O)C2(F)F)c(=O)n1` [gemcitabine] + CO[C@@H]1[C@H](N(C)C(=O)c2ccccc2)C[C@H]2O[C@]1(C)n1c3ccccc3c3c4c(c5c6ccccc6n2c5c31)C(=O)NC4 [Midostaurin] (first compound 0.0004 µM, partner dose 0.08 µM), the “cleaved PARP positive nuclei fraction” value worked out at 107%.
As to `CN1CCN(c2ccc3nc(-c4c(N)c5c(F)cccc5[nH]c4=O)[nH]c3c2)CC1` [Dovitinib] + O=C(O)C(=O)Nc1sc2c(c1C(=O)O)CCNC2 [TCS401] (first compound 0.1 µM, partner dose 1.66667 µM), the “cleaved PARP positive nuclei fraction” value was 52.5%.
On to `Nc1ncn([C@H]2C[C@H](O)[C@@H](CO)O2)c(=O)n1` [decitabine] + COC(=O)c1sccc1S(=O)(=O)Nc1ccc(Nc2ccccc2)cc1OC [GSK0660] (first compound 0.1 µM, partner dose 1 µM), for which the “cleaved PARP positive nuclei fraction” value was found to be 83.6%.
As for `Cc1cc(Nc2cc(N3CCN(C)CC3)nc(/C=C/c3ccccc3)n2)n[nH]1` + Cc1cc(N2CCOCC2)cc2[nH]c(-c3c(NC[C@@H](O)c4cccc(Cl)c4)cc[nH]c3=O)nc12 [BMS536924] (first compound 0.04 µM, partner dose 0.2 µM), the “cleaved PARP positive nuclei fraction” value worked out at 72%.
Turning to `Cn1c(=O)n(-c2ccc(C(C)(C)C#N)cc2)c2c3cc(-c4cnc5ccccc5c4)ccc3ncc21` + NC(=O)Nc1cc(-c2cccc(F)c2)sc1C(=O)N[C@H]1CCCNC1 [AZD7762] (first compound 0.004 µM, partner dose 0.02 µM), the “cleaved PARP positive nuclei fraction” value was determined as 66.9%.
Under `C=C(c1ccc(C(=O)O)cc1)c1cc2c(cc1C)C(C)(C)CCC2(C)C` [Bexarotene] + O=C(Nc1ccccc1)c1cc([N+](=O)[O-])ccc1Cl [GW9662] (first compound 2 µM, partner dose 2 µM) stands 35.3%; under `CNC(=O)c1cc(Oc2ccc(NC(=O)Nc3ccc(Cl)c(C(F)(F)F)c3)cc2)ccn1` [sorafenib] + COC(=O)c1sccc1S(=O)(=O)Nc1ccc(Nc2ccccc2)cc1OC [GSK0660] (first compound 0.4 µM, partner dose 1 µM), 44.1%.
For the molecule `CNC(=O)c1cc(Oc2ccc(NC(=O)Nc3ccc(Cl)c(C(F)(F)F)c3)cc2)ccn1` [sorafenib] + CCCCCCCCCCCC1=C(O)C(=O)C=C(O)C1=O [Embelin] (first compound 0.4 µM, partner dose 1.2 µM), the “cleaved PARP positive nuclei fraction” value is 88.2%.
Under `CS(=O)(=O)CCNCc1ccc(-c2ccc3ncnc(Nc4ccc(OCc5cccc(F)c5)c(Cl)c4)c3c2)o1` [lapatinib] + CN(C)S(=O)(=O)c1ccc2c(c1)/C(=C/c1cc3c([nH]1)CCCC3)C(=O)N2 [SU6656] (first compound 0.8 µM, partner dose 0.4 µM) stands 42%; under `C[C@@H](Oc1cc(-c2cnn(C3CCNCC3)c2)cnc1N)c1c(Cl)ccc(F)c1Cl` [Crizotinib] + CCCCCCCCCCCC1=C(O)C(=O)C=C(O)C1=O [Embelin] (first compound 0.2 µM, partner dose 1.2 µM), 72.3%; under `Nc1nc(F)nc2c1ncn2[C@@H]1O[C@H](CO)[C@@H](O)[C@@H]1O` [fludarabine] + Cc1cc(N2CCOCC2)cc2[nH]c(-c3c(NC[C@@H](O)c4cccc(Cl)c4)cc[nH]c3=O)nc12 [BMS536924] (first compound 0.2 µM, partner dose 0.2 µM), 1110%.
On to `Cc1cc(Nc2cc(N3CCN(C)CC3)nc(/C=C/c3ccccc3)n2)n[nH]1` + COc1ccc(COc2ccc(Cc3cnc(N)nc3N)cc2OC)cc1 [GW2580] (first compound 0.04 µM, partner dose 1 µM), for which the “cleaved PARP positive nuclei fraction” value was 242%.
In the case of `CNC(=O)c1cc(Oc2ccc(NC(=O)Nc3ccc(Cl)c(C(F)(F)F)c3)cc2)ccn1` [sorafenib] + NCC(=O)Nc1ccc(-n2nc(C(F)(F)F)cc2-c2ccc3c(ccc4ccccc43)c2)cc1 [OSU03012] (first compound 0.4 µM, partner dose 1 µM), the “cleaved PARP positive nuclei fraction” value came to 111%.
Regarding `Cc1cc(Nc2cc(N3CCN(C)CC3)nc(/C=C/c3ccccc3)n2)n[nH]1` + OCCn1cc(-c2cnc3nnn(Cc4ccc5ncccc5c4)c3n2)cn1 [PF04217903] (first compound 0.04 µM, partner dose 1 µM), the “cleaved PARP positive nuclei fraction” value came out at 97.2%.
Turning to `Nc1nc(F)nc2c1ncn2[C@@H]1O[C@H](CO)[C@@H](O)[C@@H]1O` [fludarabine] + CCc1ccc(CCOc2ccc(CC3SC(=O)NC3=O)cc2)nc1 [pioglitazone] (first compound 0.2 µM, partner dose 2 µM), the “cleaved PARP positive nuclei fraction” value was 474%.
Turning to `CS(=O)(=O)CCNCc1ccc(-c2ccc3ncnc(Nc4ccc(OCc5cccc(F)c5)c(Cl)c4)c3c2)o1` [lapatinib] + OCCn1cc(-c2cnc3nnn(Cc4ccc5ncccc5c4)c3n2)cn1 [PF04217903] (first compound 0.8 µM, partner dose 1 µM), the “cleaved PARP positive nuclei fraction” value was 67.1%.
Regarding `CNC(=O)c1cc(Oc2ccc(NC(=O)Nc3ccc(Cl)c(C(F)(F)F)c3)cc2)ccn1` [sorafenib] + Cc1cc([N+](=O)[O-])ccc1NS(=O)(=O)c1cc(Cl)ccc1Cl [FH535] (first compound 0.4 µM, partner dose 1 µM), the “cleaved PARP positive nuclei fraction” value worked out at 37.8%.
As for `CN1CCN(c2ccc3nc(-c4c(N)c5c(F)cccc5[nH]c4=O)[nH]c3c2)CC1` [Dovitinib] + COc1ccc2c(c1)CCC1C2CCC2(C)C(NCCCCCCN3C(=O)C=CC3=O)CCC12 [U73122] (first compound 0.1 µM, partner dose 0.4 µM), the “cleaved PARP positive nuclei fraction” value stood at 31.9%.
As for `O=C(O)[C@@H]1[O][Sb](=[O])([O][Sb]2(=[O])[O][C@H]([C@H](O)CO)[C@H](O)[C@H](C(=O)O)[O]2)[O][C@H]([C@H](O)CO)[C@@H]1O` (stereo partly specified) [stibogluconate] + COc1cc(N2CCC(N3CCN(C)CC3)CC2)ccc1Nc1ncc(Cl)c(Nc2ccccc2S(=O)(=O)C(C)C)n1 [NVP-TAE684] (first compound 2 µM, partner dose 0.08 µM), the “cleaved PARP positive nuclei fraction” value came to 51.8%.
As for `CCCS(=O)(=O)Nc1ccc(F)c(C(=O)c2c[nH]c3ncc(Cl)cc23)c1F` + N#Cc1c(O)c2c(-c3ccc(-c4ccccc4O)cc3)csc2[nH]c1=O [A769662] (first compound 0.08 µM, partner dose 2 µM), the “cleaved PARP positive nuclei fraction” value is 166%.
Take `CN1CCN(c2ccc3nc(-c4c(N)c5c(F)cccc5[nH]c4=O)[nH]c3c2)CC1` [Dovitinib] + Cc1cc(N2CCOCC2)cc2[nH]c(-c3c(NC[C@@H](O)c4cccc(Cl)c4)cc[nH]c3=O)nc12 [BMS536924] (first compound 0.1 µM, partner dose 0.2 µM): the “cleaved PARP positive nuclei fraction” value came to 696%.
Regarding `C[C@@H](Oc1cc(-c2cnn(C3CCNCC3)c2)cnc1N)c1c(Cl)ccc(F)c1Cl` [Crizotinib] + COc1ccc(-c2ccc3c(N4CCOCC4)nc(N4C[C@@H](C)O[C@@H](C)C4)nc3n2)cc1CO [KU0063794] (first compound 0.2 µM, partner dose 0.02 µM), the “cleaved PARP positive nuclei fraction” value worked out at 124%.

The values above are taken from the supplement of paper PMC4604168 (melanoma cell lines).
